Changes are numbered by the printed parent chain. These are yes or no findings as the source states them, for the method shown. Binding seen in cells or lysates may run through a third protein. Some results given as binding are weak or reduced against the parent protein; the word gives no strength. Where a sequence is shown, tags or fusion partners need not be part of it.
What was measured:
[1] = target: T1, GST-ZFPM2/FOG2 p.S402R (human) (UniProt Q8WW38); test: pull-down; GST-ZFPM2/FOG2 (wild type or mutant) bound to 200 µl glutathione resin (Pierce GST Protein Interaction Pull-Down kit), incubated with GATA4 fragment at 4°C; washed with 25 mM Tris-HCl pH 7.2, 150 mM NaCl; eluate on SDS-PAGE, Coomassie staining
T1 sequence: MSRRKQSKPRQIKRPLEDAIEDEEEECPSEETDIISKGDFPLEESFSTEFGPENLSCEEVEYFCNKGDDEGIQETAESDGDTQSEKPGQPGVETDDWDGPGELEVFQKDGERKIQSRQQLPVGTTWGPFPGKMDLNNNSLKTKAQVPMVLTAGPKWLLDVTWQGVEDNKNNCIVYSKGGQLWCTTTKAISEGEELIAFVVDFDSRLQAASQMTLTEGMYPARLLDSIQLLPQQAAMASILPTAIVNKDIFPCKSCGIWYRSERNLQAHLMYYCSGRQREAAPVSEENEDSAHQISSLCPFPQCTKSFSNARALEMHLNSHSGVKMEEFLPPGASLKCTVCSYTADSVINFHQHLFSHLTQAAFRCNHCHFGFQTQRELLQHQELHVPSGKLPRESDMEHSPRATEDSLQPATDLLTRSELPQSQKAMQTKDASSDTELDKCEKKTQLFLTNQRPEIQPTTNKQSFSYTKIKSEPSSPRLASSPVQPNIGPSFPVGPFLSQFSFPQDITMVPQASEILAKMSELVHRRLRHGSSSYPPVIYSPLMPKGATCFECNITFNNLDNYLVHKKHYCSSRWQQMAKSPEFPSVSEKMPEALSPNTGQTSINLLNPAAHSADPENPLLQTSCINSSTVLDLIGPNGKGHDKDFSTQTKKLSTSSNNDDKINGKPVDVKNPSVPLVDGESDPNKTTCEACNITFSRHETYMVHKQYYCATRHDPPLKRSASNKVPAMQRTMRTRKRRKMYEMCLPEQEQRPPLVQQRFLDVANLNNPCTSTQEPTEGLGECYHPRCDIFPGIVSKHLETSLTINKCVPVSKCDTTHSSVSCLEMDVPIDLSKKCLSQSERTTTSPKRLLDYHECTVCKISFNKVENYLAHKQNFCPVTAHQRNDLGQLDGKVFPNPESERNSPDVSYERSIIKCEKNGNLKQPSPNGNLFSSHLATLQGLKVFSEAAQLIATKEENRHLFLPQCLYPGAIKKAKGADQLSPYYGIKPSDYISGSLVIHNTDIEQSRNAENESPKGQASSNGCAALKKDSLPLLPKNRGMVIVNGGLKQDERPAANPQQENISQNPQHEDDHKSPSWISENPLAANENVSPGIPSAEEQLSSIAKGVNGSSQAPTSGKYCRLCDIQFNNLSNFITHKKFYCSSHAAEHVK

By UniProt entry, the sequences of proteins in these tests, tags left out. Residues count along the entry.
UniProt P43694, residues 200-254: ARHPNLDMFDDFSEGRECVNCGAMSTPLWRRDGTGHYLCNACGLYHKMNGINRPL

[2] = target: T2, GST-ZFPM2/FOG2 wild type (human) (UniProt Q8WW38); test: as above
T2 sequence: T1 sequence with R402S

binding [1]: no binding
binding [2]: binds
Substance: N-terminal zinc-finger sequence of GATA4 (residues 200-254) (from UniProt P43694 200-254) (domain or fragment)

— publication PMC4099368
